PMC7819943, “Rice protein-binding microarrays: a tool to detect cis-acting elements near promoter regions in rice”
Some of the results follow.

The chains behind the UniProt entries cited, without tags or fusion partners.
UniProt Q0JBA9, entry or part of it: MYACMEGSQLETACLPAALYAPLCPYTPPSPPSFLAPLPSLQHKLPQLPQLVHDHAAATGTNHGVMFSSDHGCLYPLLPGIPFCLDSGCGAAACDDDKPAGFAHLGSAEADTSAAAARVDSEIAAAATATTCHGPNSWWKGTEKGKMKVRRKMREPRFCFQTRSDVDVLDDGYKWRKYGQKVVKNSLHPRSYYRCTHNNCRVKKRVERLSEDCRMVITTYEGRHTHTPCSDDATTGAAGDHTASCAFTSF

Target: OsWRKY34 (Oryza sativa, UniProt Q0JBA9 1-250)
Assay: protein-binding microarray (RPBM); PBS, 2% BSA, 51.3 ng/ul salmon testes DNA, 50 uM zinc acetate, 200 nM TF, 25 C, 1 h; high values mean tight binding
Settings: protein: recombinant; tags: N-terminal polyhistidine and DsRed monomer fusion (pET32a); label: CyDye5-dUTP incorporated in the synthesized complementary strand; 3' TTTTT single-stranded linker to array surface; dsDNA, one strand shown
In short: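 Polyhistidine-tagged DsRed fusions of transcription factors, joined at the N-terminus, were expressed in E. coli BL21-CodonPlus and isolated on Ni–NTA. They were incubated at 200 nM for 1 h at 25 °C on a custom Agilent array, double-stranded and BSA-blocked, in PBS with 2% BSA, salmon testes DNA and 50 µM zinc acetate. The binding signal is per-feature fluorescence intensity (arbitrary units) read on an Axon 4000B scanner after washing.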

| Sequence | binding signal |
| --- | --- |
| TTTGACATCATTGACTTTTTAGCACATATTTGACCGTTCGCGGAGTCACCTAGTGCAG | 14400 fluorescence intensity (a.u.) |
| AAATACTAGTAAACTGCTCTTTCTTTTGTGCTGTCTTGATCGGAGTCACCTAGTGCAG | 14200 fluorescence intensity (a.u.) |
| CCACTTACAAATATCACCCACACTTACACTTTCATTTTCGCGGAGTCACCTAGTGCAG | 8700 fluorescence intensity (a.u.) |
| CACGGTCTTCAAAACACAACTTTGACTTCTTGTTTCTATACGGAGTCACCTAGTGCAG | 10300 fluorescence intensity (a.u.) |
| TTTTTATTATGTTCTAAGTTTTGCTCAGCTCTTCATGTTTCGGAGTCACCTAGTGCAG | 8700 fluorescence intensity (a.u.) |
| ACAAACCAAATACATCACATATTATACATCTCAGATCCATCGGAGTCACCTAGTGCAG | 8400 fluorescence intensity (a.u.) |
| AGGAGAATGATATAGCACATACCCTAGGAGCTCTTTTTCACGGAGTCACCTAGTGCAG | 8520 fluorescence intensity (a.u.) |
| GTACTTGCATGTTTCCATTCCCATTCCAATTCCAACCATACGGAGTCACCTAGTGCAG | 9600 fluorescence intensity (a.u.) |
| ATCACCACCGCCGCCGCCGTCTTCTTCTCCTCCTCCTCTTCGGAGTCACCTAGTGCAG | 11500 fluorescence intensity (a.u.) |
| GTCGTGTCGCCGTCTCCGAGTGCCTTCACCTCTGCCTTCCCGGAGTCACCTAGTGCAG | 8910 fluorescence intensity (a.u.) |
| ACTTTCATTCACTCAGATGTTCTCATTTATCATCCTTATACGGAGTCACCTAGTGCAG | 12000 fluorescence intensity (a.u.) |
| CAGGTAGTGTGCAGTGTAGGTCGTCTGAGTCGGTCAGTTTCGGAGTCACCTAGTGCAG | 9050 fluorescence intensity (a.u.) |
| AGCCCATATCTAATTCTCTAAATTTCATACCACATATTTTCGGAGTCACCTAGTGCAG | 9900 fluorescence intensity (a.u.) |
| TCCGGTTGTTGTGCTGATTCTTCGTTCTTTCTCTCCCTCTCGGAGTCACCTAGTGCAG | 10100 fluorescence intensity (a.u.) |
| AGCAAACCAATCATGCATCATTACGCGTTAGTCAATCTCTCGGAGTCACCTAGTGCAG | 8740 fluorescence intensity (a.u.) |
| CACCTCCCTATCCTTCACACCTAGCTCGCTCGATCATTTCCGGAGTCACCTAGTGCAG | 11000 fluorescence intensity (a.u.) |
| ACCCCTACGCACGCCGACGGGCCCTGCGCCAGAAACCCTCCGGAGTCACCTAGTGCAG | 9780 fluorescence intensity (a.u.) |
| ATTTCCATTTTCCTCGGGCAAGAACTGCTTTGTCCACTCCCGGAGTCACCTAGTGCAG | 8980 fluorescence intensity (a.u.) |
| ACTTTTTTAAATATGTTTGACCGTTCGTTTTATTCAAAAACGGAGTCACCTAGTGCAG | 8320 fluorescence intensity (a.u.) |
| TTCGACACCTGGTTTTTCTCTTACTTACAAACGGATGTTACGGAGTCACCTAGTGCAG | 9310 fluorescence intensity (a.u.) |
| GTTCCTTTATTTCTTTCTTTACTAGTACTAGTTGCATGTTCGGAGTCACCTAGTGCAG | 9900 fluorescence intensity (a.u.) |

In another format: results already given
ACTTTTTTAAATATGTTTGACCGTTCGTTTTATTCAAAAACGGAGTCACCTAGTGCAG
  binding signal = 8320 fluorescence intensity (a.u.)
TTCGACACCTGGTTTTTCTCTTACTTACAAACGGATGTTACGGAGTCACCTAGTGCAG
  binding signal = 9310 fluorescence intensity (a.u.)

More entries follow:

| Sequence | binding signal |
| --- | --- |
| ACACTGACTGATTTACCCTTGATCATACTACTAGTACATTCGGAGTCACCTAGTGCAG | 8470 fluorescence intensity (a.u.) |
| TTTTCTCACGTGGAAACCACCGTTCGCTTCGTTAACCTCCCGGAGTCACCTAGTGCAG | 10400 fluorescence intensity (a.u.) |
| TCGTTGACTATGTGTGGTGTTCCATGCCGCTAAGTCGATGCGGAGTCACCTAGTGCAG | 9690 fluorescence intensity (a.u.) |
| GGCCCTCATGATGATGACACTACCGTTCCAGCCCAACATACGGAGTCACCTAGTGCAG | 9290 fluorescence intensity (a.u.) |
| TGGCGACCTAATTTACCGTCTCCCGCGAAACCCGGACAAACGGAGTCACCTAGTGCAG | 8770 fluorescence intensity (a.u.) |
| GTCCCTACTGTTGCTAGTTGCACTTCTCGCGATCACTTGACGGAGTCACCTAGTGCAG | 9870 fluorescence intensity (a.u.) |
| TACTGCAACTCTGCAAGCACATTGATCAATCGATCAATCCCGGAGTCACCTAGTGCAG | 8450 fluorescence intensity (a.u.) |
| GACCGTGCGACGCACCATTTGATTACTGCCTTATTGAGTTCGGAGTCACCTAGTGCAG | 9630 fluorescence intensity (a.u.) |
| CGTGCCGTCCAACACCACTCATCCGATCCGACGGCCCGCGCGGAGTCACCTAGTGCAG | 8360 fluorescence intensity (a.u.) |
| CACAAGAGCGACGACCCCACCGTATCCCACACCTCGCTCACGGAGTCACCTAGTGCAG | 10900 fluorescence intensity (a.u.) |
| TGATGGATGTATTGGATATATGGTTGTGTCCTGGTTTACCCGGAGTCACCTAGTGCAG | 8140 fluorescence intensity (a.u.) |
| ATTCCTCATTTAGTACCAGGCTCTGGTTTCTCTCGGTGCTCGGAGTCACCTAGTGCAG | 8090 fluorescence intensity (a.u.) |
| CCTTCATTCCCTCCGTCGTTCGCGTTCATCTTCTGCTTGTCGGAGTCACCTAGTGCAG | 9480 fluorescence intensity (a.u.) |
| TTACATCTAGATCTTTTGCAACTTTTATTTAATTAAATTACGGAGTCACCTAGTGCAG | 9970 fluorescence intensity (a.u.) |
| TGCCATTGCCCGCCCCATTCTGCCGTCTGCACCAGTCACACGGAGTCACCTAGTGCAG | 9070 fluorescence intensity (a.u.) |
| ACGACGACCACACATGATACACGATACCCTTCTCTCCTTTCGGAGTCACCTAGTGCAG | 9950 fluorescence intensity (a.u.) |
| CTTTTGTTGCCCACCCACCCATCAATCCGGTACCATGCAGCGGAGTCACCTAGTGCAG | 8070 fluorescence intensity (a.u.) |
| TTTGTCAGAGGCTGCCCGTCCAACTTTTCTCATTGGTTCGCGGAGTCACCTAGTGCAG | 9430 fluorescence intensity (a.u.) |
| TAGGTAGAACCCTGACGACGACAACTAGCGATGGGCGGGGCGGAGTCACCTAGTGCAG | 8800 fluorescence intensity (a.u.) |
| GTCTCACCTCACCCACACCCACTCTCTTCTTCTGCTTCCTCGGAGTCACCTAGTGCAG | 9080 fluorescence intensity (a.u.) |
| CCTCTAATATAAGGGATTTTGATATTTTGCTTGTATTGTTCGGAGTCACCTAGTGCAG | 8410 fluorescence intensity (a.u.) |
